Test results from article PMC6367206.
These are yes or no findings as the source states them, for the method shown. Binding seen in cells or lysates may run through a third protein. Some binding calls cover weakened binding; strength is not graded here.

Key:
[1] = target: HA-tagged P53 (UniProt P04637); assay: co-IP; cells lysed in RIPA buffer; lysate with primary antibody overnight at 4 C, protein A beads 4 h; Western blot; cells and antibodies not stated
[2] = target: GST-P53 fusion protein (UniProt P04637); assay: pull-down; 5 ug purified GST-P53 incubated with 500 ug H23 whole cell lysate (50 mM Tris-Cl pH 7.5, 150 mM NaCl, 0.1% NP40) overnight at 4 C; captured on Glutathione Sepharose 4B; SDS-PAGE; only the target purified

| binding [1] | binding [2] | Substance |
| --- | --- | --- |
| binds | – | myc-tagged SYT7 (from UniProt O43581 1-403) |
| – | binds | synaptotagmin-7 (SYT7) in H23 whole cell lysate (from UniProt O43581 1-403) |
